In all, about 78,000 compounds went through this assay and about 1,800 (2.3%) were called active. The shares of active, inactive and inconclusive entries below differ from those in the screen. Cut-off read from the data, not from the text of the source: active = inhibition above about 30%; inconclusive = mostly about 10% to 28%; inactive = weaker than that.
Molecular target: Interleukin-1 receptor-like 1 (Homo sapiens) (UniProt Q01638)
Assay: blocks human ST2 binding to IL-33, primary screen, biochemical, AlphaLISA (AID 1259354)
Details: AlphaLISA ST2-Fc/biotin-IL-33 interaction, 1 h; at 17 µM, hits give high values

Chains of the proteins cited; added tags and fusions are not shown. Lines headed by an entry give the natural chain unless they say otherwise; changes in a name come on top.
UniProt Q01638: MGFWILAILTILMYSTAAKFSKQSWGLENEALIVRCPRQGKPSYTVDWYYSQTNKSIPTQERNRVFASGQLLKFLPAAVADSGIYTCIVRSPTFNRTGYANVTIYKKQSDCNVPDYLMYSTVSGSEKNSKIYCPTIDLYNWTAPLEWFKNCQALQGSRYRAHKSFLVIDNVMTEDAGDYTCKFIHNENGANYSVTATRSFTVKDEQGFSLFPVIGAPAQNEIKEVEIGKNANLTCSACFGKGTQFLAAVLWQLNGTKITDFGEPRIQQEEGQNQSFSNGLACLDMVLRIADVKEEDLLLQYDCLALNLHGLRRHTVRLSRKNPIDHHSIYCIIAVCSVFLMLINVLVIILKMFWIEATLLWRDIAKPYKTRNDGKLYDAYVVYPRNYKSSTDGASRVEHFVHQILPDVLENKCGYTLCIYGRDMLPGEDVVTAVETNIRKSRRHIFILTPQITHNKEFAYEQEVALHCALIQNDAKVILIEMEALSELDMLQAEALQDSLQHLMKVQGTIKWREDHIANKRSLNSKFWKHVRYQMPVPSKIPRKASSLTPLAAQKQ

SMILES | inhibition
O=C1CCCC2=C1C(c1ccc(F)c(Oc3ccccc3)c1)Nc1ccccc1N2 (configuration not stated) | inactive
CN1CC(=O)N2CCN(C(=O)c3ccc(C#CC(C)(C)O)cc3)CC2C1=O (configuration not stated) | inconclusive: 18%
Cc1ccc(C)c(OC(C)C(=O)NCCc2n[nH]c3c2CCCC3)c1 (configuration not stated) | inconclusive: 19%
Cc1ccc(F)cc1N1C(=O)CSC1c1ccc([N+](=O)[O-])cc1 (configuration not stated) | inconclusive: 22%
CC(C)CN1CCCN(C(=O)c2ccc(Cn3cnnn3)cc2)CC1 | inconclusive: 13%
O=C(NC1CCCC1)c1cc(-c2cccs2)on1 | inactive
Cn1c(=O)c2c(nc(N3CCN(c4ccccn4)CC3)n2Cc2ccccc2F)n(C)c1=O | inactive
CC(C)(NC(=O)c1cccs1)C(=O)NCC(c1ccncc1)N1CCOCC1 (configuration not stated) | inconclusive: 12%
CSc1nc(C(=O)N2CCN3C(=O)CN(C)C(=O)C3C2)cs1 (configuration not stated) | inconclusive: 12%
O=C(Nc1cccc(Cl)c1)c1nn(-c2ccc(Cl)cc2)c(=O)c2ccccc12 | inactive
CC(C)CCCC1CN(C(=O)c2ccccc2-c2ncn[nH]2)CCO1 (configuration not stated) | inconclusive: 18%
COc1cccc(CC2CN(Cc3cc4c(cc3C)OCO4)CCO2)c1 (configuration not stated) | inconclusive: 12%
CC(=O)c1cccc(N2COc3ccc(Cl)cc3C2)c1 | inconclusive: 13%
CC(Oc1ccccc1)C(=O)Nc1nnc(C(C)(C)C)s1 (configuration not stated) | inactive
Oc1ccc(Br)cc1C=Nc1ccccc1F | inconclusive: 12%
Cc1csc(SCC(=O)N2CCC(Cc3cccc(C(N)=O)c3)C2)n1 (configuration not stated) | inconclusive: 13%
COc1cccc(COC2CN(CC(C)C)C(=O)CN(C(=O)c3ccccc3F)C2)c1 (configuration not stated) | inconclusive: 12%
O=C(Nc1ccc(Br)cc1)c1ccc(NS(=O)(=O)c2cccs2)cc1 | inconclusive: 19%
Cc1nc(-c2cccc(C(=O)N(CCN(C)C)Cc3ccc(C)s3)c2)no1 | inactive
Cc1nc(CN2CC(OCc3ccncc3)CN(Cc3cc4ccccc4o3)CC2=O)cs1 (configuration not stated) | inconclusive: 29%
CC1CC(C)CN(C(=O)c2ccc3c(c2)NC(=O)C(N2CCCCC2)S3)C1 (configuration not stated) | inactive
O=C(Nc1ccc(F)cc1F)c1cccc(Br)c1 | inactive
CC1=CC(=O)C=C(C)C1=NOC(=O)/C=C\c1ccccc1 | active: 35%
O=C(NCc1cccnc1)c1ccccc1NC(=O)C(c1ccccc1)c1ccccc1 | inconclusive: 13%
COCCNC(=O)Cn1c(=O)n(-c2ccc(F)cc2F)c(=O)c2sccc21 | inconclusive: 22%

Some of the entries above, set out differently.

| SMILES | inhibition |
| --- | --- |
| CN1CC(=O)N2CCN(C(=O)c3ccc(C#CC(C)(C)O)cc3)CC2C1=O (configuration not stated) | inconclusive: 18% |
| Cc1nc(-c2cccc(C(=O)N(CCN(C)C)Cc3ccc(C)s3)c2)no1 | inactive |
| CC1CC(C)CN(C(=O)c2ccc3c(c2)NC(=O)C(N2CCCCC2)S3)C1 (configuration not stated) | inactive |

Rewritten field by field: entries from further up
Cc1nc(CN2CC(OCc3ccncc3)CN(Cc3cc4ccccc4o3)CC2=O)cs1 (configuration not stated)
  inhibition: inconclusive: 29%
CC1CC(C)CN(C(=O)c2ccc3c(c2)NC(=O)C(N2CCCCC2)S3)C1 (configuration not stated)
  inhibition: inactive

(continued)

SMILES | inhibition
Cc1ccc(Nc2nnc(Cc3ccccc3Cl)c(=O)[nH]2)c(C)c1 | inactive
CCC(C)N(Cc1ccsc1)C(=O)c1ccc2c(c1)OCC(=O)N2 (configuration not stated) | inconclusive: 19%
C=CCN1CC(C(=O)NCc2cc(C)cc3c(C)c(C)[nH]c23)CCC1=O (configuration not stated) | inconclusive: 15%
Cc1cccc(N(CC(=O)N(C)Cc2csc(C(C)C)n2)S(C)(=O)=O)c1 | inconclusive: 16%
COc1ccc(CN2CCN(Cc3cc4ccccc4o3)CC2CCO)cc1C (configuration not stated) | inconclusive: 15%
O=C(C1CC1)N1CCc2cc(S(=O)(=O)N3CCOCC3)ccc21 | inconclusive: 13%
CCOC(=O)c1c(NC(=O)c2ccc(Br)s2)sc2c1CCN(C(C)C)C2 | inconclusive: 11%
Cc1occc1C(=O)N(CC1CCN(C2CCCC2)CC1)CC1CCCO1 (configuration not stated) | inactive
COc1ccc(N(C)C(=O)c2cc3cc4ccc(C)cc4nc3s2)c(OC)c1 | inconclusive: 26%
O=C(c1cc(COc2cccc3cccnc23)on1)N1C[C@@H]2CC[C@H]1C2 | inactive
CC(CC(=O)N1CCCc2ccccc21)c1ccccc1 (configuration not stated) | inactive
O/N=C\c1c(O)c(Br)cc2oc3c(c12)CCCC3 | active: 38%
CCOc1ccc(C2CC(c3ccc(OC)cc3)Nc3nc(N)nn32)cc1 (configuration not stated) | inactive
COc1ccc(N2C(N)=C(C#N)C(c3ccc(OC)c(OC)c3)C3=C2CC(C)(C)CC3=O)cc1 (configuration not stated) | inactive
CSc1ccc(CC(=O)N2CC(=O)N(CC3CCOCC3)CC(OCc3cccnc3)C2)cc1 (configuration not stated) | inconclusive: 12%
CC(C)N1C[C@@H]2OCC(=O)N(Cc3nccn3C)[C@@H]2C1 | inconclusive: 11%
COc1ccc(S(=O)(=O)N[C@H]2C[C@@H](c3nc(-c4cccnc4)no3)N(C)C2)cc1 | inconclusive: 27%
Cc1ccc(Oc2ncccc2CNC(=O)c2ccc3nccnc3c2)cn1 | inconclusive: 11%
Cc1cccc(N2C(=O)S/C(=C\c3ccccc3)C2=O)c1 | inconclusive: 14%
O=C1NCCN1CCNCc1nc(-c2ccco2)no1 | inactive
CCc1noc(C)c1C(=O)NCc1cnn2ccccc12 | inconclusive: 15%
CCc1ocnc1C(=O)N1CCCC(c2[nH]ncc2-c2ccc(C)cc2)C1 (configuration not stated) | inconclusive: 17%
COc1cccc(OCCSc2nc(C)cc(=O)[nH]2)c1 | inactive
CCN(CC)CCSc1nc(C)cc(C)n1 | inactive
CCCCn1cnc2cc(NCc3cc(OC)c(OC)c(OC)c3)ccc21 | inconclusive: 18%

SMILES | inhibition
CN(C)CCNC(=O)C1(O)c2cc(Br)ccc2NC(=O)N1c1c(F)cccc1F (configuration not stated) | inactive
O=c1c2c3c(sc2nc(SCc2ccncc2)n1-c1ccccc1)CCCC3 | inconclusive: 10%
Cc1nnc([C@H]2CCN(Cc3cccc(C#N)c3)C2)o1 | inactive
COc1cc2c(cc1OC)CN(Cc1ccc(OCc3ccccc3)c(OC)c1)CC2 | inactive
O=C(O)C1(O)CCN(c2ccc(-c3ccccc3)nn2)CC1 | inconclusive: 11%
NC(=O)[C@H](Cc1cccs1)NC(=O)[C@@]1(O)C[C@@H](O)[C@H](O)[C@@H](NC(=O)c2ccc(F)c(Cl)c2)C1 | inconclusive: 14%
CC(=O)N1CCN(C(=O)Nc2ccccc2)C[C@H]1C(=O)N[C@@H](CC1CCCCC1)C(N)=O | inconclusive: 21%
O=C(Nc1cccc(O)c1)c1noc2c1CCCCC2 | inconclusive: 21%
C(=C\c1cccc(-n2cnnc2)c1)/c1ccccc1 | inconclusive: 12%
COCC(=O)N1CCCN(C/C(C)=C/c2ccco2)CC1 | inconclusive: 10%
O=C1/C(=C/c2ccc(F)cc2)Sc2ccccc21 | inconclusive: 25%
O=C(Nc1nccs1)c1cc(-c2ccc3c(c2)OCO3)nc2ccccc12 | inconclusive: 26%
O=C1NCCN1c1ccc(CN2CCCC(OCc3ccccn3)C2)cc1 (configuration not stated) | inactive
Cc1cc(Nc2ccncc2)n2c(nc3ccccc32)c1C#N | inconclusive: 17%
CN=C1NC(=O)C(CC(=O)Nc2ccc(C)cc2)S1 (configuration not stated) | inconclusive: 12%
O=C1OC(C(=O)Nc2c(Cl)cccc2Cl)Cc2ccccc21 (configuration not stated) | inconclusive: 18%
CC(N)(C(=O)O)c1ccc(C(=O)O)cc1 (configuration not stated) | inconclusive: 14%
O=C(CCCCCn1c(=O)[nH]c2ccsc2c1=O)N1CCN(c2ccccn2)CC1 | inconclusive: 18%
CCCN(Cc1ccccc1)C(=O)Nc1ccc2snnc2c1 | inactive
CCc1cccc(CC)c1NC1=NS(=O)(=O)c2ccccc21 | inconclusive: 10%
COCC(=O)N1CCC(Oc2ccc(C(=O)NCc3ccc(C(=O)OC)cc3)cc2)CC1 | inconclusive: 10%
CN1CCC(Cc2noc(-c3ccnc(-n4cnnc4)c3)n2)CC1 | inconclusive: 11%
CCN=C(NS(=O)(=O)c1ccc(F)cc1)c1ccccc1 | inconclusive: 11%
O=C1Nc2cc(Cl)c(Cl)cc2N(O)N1c1ccc(Cl)c([N+](=O)[O-])c1 | inconclusive: 10%
COc1c(O)cc2c(c1O)C(=O)O[C@H](C)[C@H]2O | inconclusive: 27%

SMILES | inhibition
O=C(NCCc1cccc(Cl)c1)c1ccc([N+](=O)[O-])cc1Cl | inactive
CCOC(=O)CSc1nc2c(c(=O)n1-c1ccc(Cl)cc1)SCC2 | inactive
O=[N+]([O-])c1ccc(-c2nc3ccccc3o2)cc1 | inactive
N#Cc1cccc(NC(=S)N[C@H]2CO[C@H]3[C@@H]2OC[C@@H]3n2cc(-c3ccccc3)nn2)c1 | inconclusive: 13%
CSc1ccc(C(Nc2ccccn2)c2ccc3cccnc3c2O)cc1 (configuration not stated) | active: 33%
Cc1cccc(N=C(N)NC(N)=O)c1 | inactive
O=C(NCc1cc(-c2cccnc2)no1)c1cnn(Cc2ccccc2)c1 | inconclusive: 10%
CN(C)CCNC(=O)C[C@@H]1O[C@H](Cn2cc(CN(C)Cc3ccccc3)nn2)[C@@H](O)[C@H]1O | inconclusive: 13%
Cc1nc2ccccc2c2oc(C(=O)N3CCN(c4ccccc4F)CC3)cc12 | inactive
CCN(CC)CC[C@H]1CN(C(=O)Cc2ccc(OC)cc2)CC[C@H]1CC(=O)O | inconclusive: 14%
CC(C)c1ccc(NC2CCCN(c3cnc4ccccc4n3)C2)cc1 (configuration not stated) | inconclusive: 14%
O=C(NCCN1CCOCC1)C(=O)Nc1cccc(Cl)c1Cl | inactive
Cc1ccc(C(=O)/C=C(\c2ccccc2)N2CCCCC2)cc1 | active: 30%
CNC(=O)C1CCC(Cn2c(=O)c3sccc3n(CC(=O)Nc3cccc(OC)c3)c2=O)CC1 (configuration not stated) | inactive
O=C(NCCc1nc2c(s1)CCCC2)c1cc(=O)c2ccccc2o1 | inconclusive: 13%
CC(=O)N1C(C(=O)O)CSC1c1ccc(F)cc1 (configuration not stated) | inconclusive: 10%
Cc1ccc(SC(c2ccco2)C2CCCCC2=O)cc1 (configuration not stated) | inactive
CC(C)n1cnc2cc(NCc3cccc4ccccc34)ccc21 | inconclusive: 18%
O=C(Nc1sc2c(c1C(=O)NCC1CCCO1)CCCC2)c1cccc([N+](=O)[O-])c1 (configuration not stated) | inactive
O=C(c1cccs1)N1N=C(c2cccs2)CC1c1ccc(F)cc1 (configuration not stated) | inconclusive: 18%
CC1=Nc2c([nH]c3ccccc23)-c2cc(C)ccc2N1 | active: 32%
COc1ccccc1NC(=O)CC1Sc2ccccc2NC1=O (configuration not stated) | inconclusive: 14%
